Experimental data from PMC6762210, “The monothiol glutaredoxin GrxD is essential for sensing iron starvation in Aspergillus fumigatus” (PLoS Genetics, 2019).
Results are given in words; binding and its absence hold for the method and conditions named. For some of these results: In cells and extracts the contact can be indirect. Some results given as binding are weak or reduced against the parent protein; the word gives no strength. Where a sequence is shown, tags or fusion partners need not be part of it. One block for each binder: values may come before it.

Experiments:
[1] = target: T1, GrxD^His6 (full-length A. fumigatus GrxD with a C-terminal His-tag) (A. fumigatus) (UniProt Q4X024); assay: pull-down; GrxD-His6 enriched from E. coli crude cell extract on a Ni-Sepharose column, untagged HapX^161-491 co-expressed; 50 mM HEPES pH 8.0, 300 mM NaCl, 2 mM glutathione, 10 mM imidazole; elution with 500 mM imidazole
T1 sequence: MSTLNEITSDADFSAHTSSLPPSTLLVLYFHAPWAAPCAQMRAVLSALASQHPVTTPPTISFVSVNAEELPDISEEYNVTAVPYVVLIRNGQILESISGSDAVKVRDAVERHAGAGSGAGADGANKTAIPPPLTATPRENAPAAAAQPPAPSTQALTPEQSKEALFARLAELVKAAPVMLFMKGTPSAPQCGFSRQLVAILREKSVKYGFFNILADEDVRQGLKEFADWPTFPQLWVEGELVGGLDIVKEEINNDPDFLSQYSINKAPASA

[2] = target: HapX (iron responsive transcription factor) (A. fumigatus (endogenous in A. fumigatus mycelia)) (UniProt Q4WER3); assay: co-IP; HapX or SreA precipitated from whole cell lysates of PxylP:grxD^venus or PxylP:grxD^venusΔtrx with rabbit α-HapX or α-SreA antiserum covalently linked to Protein-A-Sepharose (preserum as control); mycelia grown without iron (HapX) or with 0.03 mM iron (SreA); 3 h at 4°C; washes with 110, 500 and 750 mM KCl; Venus detected with mouse α-GFP
[3] = target: T2, SreA (iron responsive transcription factor) (A. fumigatus (endogenous in A. fumigatus mycelia)) (UniProt Q4WV91); assay: as above
T2 sequence: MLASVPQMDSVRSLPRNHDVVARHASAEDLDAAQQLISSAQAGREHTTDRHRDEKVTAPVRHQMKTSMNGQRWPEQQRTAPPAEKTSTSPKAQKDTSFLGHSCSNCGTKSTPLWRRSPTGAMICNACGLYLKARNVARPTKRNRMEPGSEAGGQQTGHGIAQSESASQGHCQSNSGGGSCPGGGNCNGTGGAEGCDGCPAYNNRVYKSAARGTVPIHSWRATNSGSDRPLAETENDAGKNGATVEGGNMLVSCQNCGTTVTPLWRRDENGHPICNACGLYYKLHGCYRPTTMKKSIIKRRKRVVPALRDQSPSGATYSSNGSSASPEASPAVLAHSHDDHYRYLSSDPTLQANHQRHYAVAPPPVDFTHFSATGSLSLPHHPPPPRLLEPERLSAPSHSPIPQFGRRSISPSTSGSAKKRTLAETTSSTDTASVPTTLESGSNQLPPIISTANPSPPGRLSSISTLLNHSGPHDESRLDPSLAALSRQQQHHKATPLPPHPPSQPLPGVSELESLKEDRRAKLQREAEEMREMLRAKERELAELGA

[4] = target: GrxD (recombinant full-length GrxD after removal of the His-tag by TEV protease) (A. fumigatus) (UniProt Q4X024); assay: SEC; Ni-chelate eluate digested with TEV protease and loaded on Superdex 200 prep grade 26/60 in 25 mM HEPES pH 7.5, 150 mM NaCl, 2 mM glutathione; apparent masses from protein calibration standards; fractions checked by SDS-PAGE; both purified

B1: HapX^161-491 (A. fumigatus HapX C-terminus with all four cysteine-rich regions) (domain or fragment, UniProt Q4WER3 161-491, looked up)
chain: KGLAPLTTSTPQARSSDRPDNGDASNNDSGEGREEVPLGCNDCSTSHCQCIEDAFTMPGVVAQEQSRRLDTTKPGLSEPQIKPDPEEMEIDFTSRFAATQQQDQSPTSVSSPAVDPCGFCSDGTPCICAEMAAQEEQRPRRNSFENNRLAPIQNLSQFTPPPSDGDVRSDVTLPPISQATNPCANGPGTCAQCLADPRRTLFCKTLAASRSPSAAPSGCCGGKGADGGCCQSRNTNVSRGRSGSNNNTSSGSSAAPSLTLSCADAYTTLSRHPNFSRATDELSTWLPKLHTLPKPRDFPLTDRGVPRAALEVEAASVMGVLRYFDRRFADK
notes: HapX of Aspergillus fumigatus (Afu5g03920), amino acids 161-491 (cysteine-rich C-terminus), from a synthetic gene; also called AfuHapX^161-491; pnCS-HapX161-491; source: E. coli BL21(DE3), untagged, bicistronically co-expressed with GrxD-His6; in crude cell extract, then co-purified (Ni-Sepharose, SEC)
- binding [1]: binds

- binding [2]: binds
- binding [3]: binds
B2: GrxD^Venus (full-length A. fumigatus monothiol glutaredoxin GrxD, C-terminally tagged with Venus) (protein, UniProt Q4X024 1-271)
chain: T1 sequence

- binding [4]: no binding
B3: GrxD (recombinant full-length GrxD after removal of the His-tag by TEV protease) (protein, UniProt Q4X024 1-271)
chain: T1 sequence
